These are yes or no findings as the source states them, for the method shown. Some results given as binding are weak or reduced against the parent protein; the word gives no strength.
Molecular target: HER3-Fc fusion protein (Fc fusion protein of the extracellular domain of human HER3, limits not stated) (human) (UniProt P21860)
Experiment: ELISA, immobilized human HER3 extracellular region fused to human Fc, scFv detected with anti-His-tag antibody

The chains behind the UniProt entries cited, without tags or fusion partners. Where a name states a change or a piece, a line headed by the entry shows the natural chain unless it says otherwise.
UniProt P21860: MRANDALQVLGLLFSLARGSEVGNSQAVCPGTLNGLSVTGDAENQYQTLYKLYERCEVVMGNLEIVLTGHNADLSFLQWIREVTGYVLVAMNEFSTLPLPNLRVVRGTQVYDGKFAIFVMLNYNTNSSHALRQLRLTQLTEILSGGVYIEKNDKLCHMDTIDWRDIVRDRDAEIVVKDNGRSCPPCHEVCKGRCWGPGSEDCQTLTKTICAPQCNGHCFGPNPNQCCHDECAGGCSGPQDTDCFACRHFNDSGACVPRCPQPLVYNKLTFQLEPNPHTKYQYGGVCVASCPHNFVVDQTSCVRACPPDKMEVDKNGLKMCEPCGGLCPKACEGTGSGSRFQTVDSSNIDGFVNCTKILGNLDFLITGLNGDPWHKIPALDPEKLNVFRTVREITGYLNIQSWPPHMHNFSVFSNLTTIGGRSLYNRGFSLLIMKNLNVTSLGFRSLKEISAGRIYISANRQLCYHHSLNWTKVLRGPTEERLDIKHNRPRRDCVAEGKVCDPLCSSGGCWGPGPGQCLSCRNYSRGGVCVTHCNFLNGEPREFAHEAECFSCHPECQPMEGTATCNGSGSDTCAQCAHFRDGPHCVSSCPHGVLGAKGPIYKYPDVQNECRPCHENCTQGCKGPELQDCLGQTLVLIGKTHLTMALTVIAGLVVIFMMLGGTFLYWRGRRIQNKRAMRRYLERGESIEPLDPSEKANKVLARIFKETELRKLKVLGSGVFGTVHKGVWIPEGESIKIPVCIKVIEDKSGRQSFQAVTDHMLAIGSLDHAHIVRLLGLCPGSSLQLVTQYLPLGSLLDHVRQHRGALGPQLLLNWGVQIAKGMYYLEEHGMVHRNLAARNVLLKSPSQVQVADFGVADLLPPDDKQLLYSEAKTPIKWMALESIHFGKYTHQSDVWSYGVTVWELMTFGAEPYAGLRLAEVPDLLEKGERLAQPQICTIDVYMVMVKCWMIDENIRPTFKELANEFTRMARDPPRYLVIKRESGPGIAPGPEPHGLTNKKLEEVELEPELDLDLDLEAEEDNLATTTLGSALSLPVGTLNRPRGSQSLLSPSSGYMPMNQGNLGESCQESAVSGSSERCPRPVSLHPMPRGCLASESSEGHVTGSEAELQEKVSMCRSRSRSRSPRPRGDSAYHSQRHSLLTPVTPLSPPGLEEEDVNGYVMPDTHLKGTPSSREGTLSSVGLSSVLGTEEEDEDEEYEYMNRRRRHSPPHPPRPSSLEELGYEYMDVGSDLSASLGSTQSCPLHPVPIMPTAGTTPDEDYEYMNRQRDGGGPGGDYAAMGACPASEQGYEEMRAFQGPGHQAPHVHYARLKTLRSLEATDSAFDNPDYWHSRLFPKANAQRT

binding: binds
B1: scFv 3-43 (scFv)
scFv: QVQLQQSGPGLVKPSQTLSLTCAISGDSVSSNRAAWNWIRQSPSRGLEWLGRTYYRSKWYNDYAQSLKSRITINPDTPKNQFSLQLNSVTPEDTAVYYCARDGQLGLDALDIWGQGTMVTVSSGGGGSGGGGSGGGGSQAGLTQPPAVSVAPGQTASITCGRDNIGSRSVHWYQQKPGQAPVLVVYDDSDRPAGIPERFSGSNYENTATLTISRVEAGDEADYYCQVWGITSDHVVFGGGTKLTVLG

Source: patent US20190194350A1
